# PubChem BioAssay (NCATS)
# Amino acid sequences for entries named in this document (tags omitted). A change or cut given only in a name is not applied to a line headed by its entry.
# UniProt P10828: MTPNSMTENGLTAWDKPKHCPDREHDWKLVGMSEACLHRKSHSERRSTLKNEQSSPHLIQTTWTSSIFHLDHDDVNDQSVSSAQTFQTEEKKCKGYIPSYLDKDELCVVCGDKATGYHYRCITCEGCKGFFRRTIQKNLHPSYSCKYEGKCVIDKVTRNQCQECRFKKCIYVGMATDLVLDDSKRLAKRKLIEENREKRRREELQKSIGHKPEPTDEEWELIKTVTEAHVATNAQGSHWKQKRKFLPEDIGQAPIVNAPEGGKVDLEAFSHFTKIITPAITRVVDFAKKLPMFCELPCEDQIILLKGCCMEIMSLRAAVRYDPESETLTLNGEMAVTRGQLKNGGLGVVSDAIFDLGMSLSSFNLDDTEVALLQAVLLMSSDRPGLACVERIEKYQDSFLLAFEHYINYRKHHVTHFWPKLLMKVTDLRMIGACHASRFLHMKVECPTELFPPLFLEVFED
# UniProt P19793: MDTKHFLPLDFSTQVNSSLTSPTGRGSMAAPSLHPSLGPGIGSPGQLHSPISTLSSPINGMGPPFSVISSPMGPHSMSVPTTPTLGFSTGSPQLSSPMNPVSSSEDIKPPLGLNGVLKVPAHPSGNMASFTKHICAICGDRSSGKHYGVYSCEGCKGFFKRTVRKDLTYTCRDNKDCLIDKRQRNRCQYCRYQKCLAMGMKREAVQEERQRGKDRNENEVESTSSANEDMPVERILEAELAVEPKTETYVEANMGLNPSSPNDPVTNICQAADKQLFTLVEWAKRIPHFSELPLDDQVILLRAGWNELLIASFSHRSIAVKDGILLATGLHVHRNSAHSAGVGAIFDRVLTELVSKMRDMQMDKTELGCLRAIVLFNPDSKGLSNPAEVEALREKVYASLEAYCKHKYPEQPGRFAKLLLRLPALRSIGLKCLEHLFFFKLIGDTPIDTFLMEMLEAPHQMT
# UniProt Q07869: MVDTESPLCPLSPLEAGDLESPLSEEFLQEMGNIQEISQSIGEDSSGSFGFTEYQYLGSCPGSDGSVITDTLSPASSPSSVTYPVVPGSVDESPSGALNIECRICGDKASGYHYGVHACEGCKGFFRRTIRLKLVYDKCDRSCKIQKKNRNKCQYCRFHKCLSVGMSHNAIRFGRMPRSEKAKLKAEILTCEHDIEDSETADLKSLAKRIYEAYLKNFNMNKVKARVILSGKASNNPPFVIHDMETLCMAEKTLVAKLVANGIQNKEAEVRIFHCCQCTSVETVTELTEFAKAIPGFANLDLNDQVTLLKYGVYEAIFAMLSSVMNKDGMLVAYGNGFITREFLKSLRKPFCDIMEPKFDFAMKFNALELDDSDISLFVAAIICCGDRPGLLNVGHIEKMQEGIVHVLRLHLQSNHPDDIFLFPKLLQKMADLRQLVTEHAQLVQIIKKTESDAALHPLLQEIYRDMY
# “And” between values parts separate entries of the source, which are not always exact repeats. Identical values can stand only once. For some assays here: Most of the hits are listed elsewhere, so they are rarer here than in the full data. Records with an inconclusive call do not appear. The entries are a selection whose mix differs from that of the whole data set. The source made the active and inactive calls. Unless noted, calls come from the whole dose curve; as a rule, active = well fitted curve in the direction sought with a large enough effect; inconclusive = small, poorly fitted or top-dose-only effect, or another doubt; inactive = no such curve, though single readings can be large; an effect the other way counts as inactive or inconclusive.
# Tests used:
# [1] = target: Thyroid hormone receptor beta (Homo sapiens) (UniProt P10828); test: qHTS assay for small molecule agonists of thyroid hormone receptor beta signaling (AID 588545; calls by dose curve); conditions: TR-UAS-bla GripTite HEK 293, beta-lactamase ratio, agonist mode, 18 h, percent of T3 response, DMSO as zero; at 76.7 µM (top of the series)
# Method in brief: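 Cells (2500/well) were seeded, incubated 4 hrs at 37 C, dosed with a compound series, incubated 18 hrs, loaded with CCF4 dye for 2 hrs at RT, then read for fluorescence. Data were scaled between DMSO (0%) and 10 nM T3 (100%).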
# [2] = qHTS assay for small molecule antagonists of retinoid X receptor alpha signaling (AID 588546; active = well fitted inhibition curve with a large enough effect in the signal ratio, with a control signal flat, not every such curve was filed as active; the % refers to the signal ratio;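 note: cells stimulated with 9-cis-retinoic acid as agonist; % is set by controls: 0 for no effect and ±100 for the full control effect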); conditions: HEK293T RXRa-UAS-bla, beta-lactamase ratio, antagonist mode; measured here: W530 green channel, cytotoxicity proxy
# Method in brief: (§1)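 Beta-lactamase reporter inhibition, read as CCF4 fluorescence ratio (ex 405, em 460/530 nm) after 2 h at RT. HEK293T UAS-bla cells, 2500/well, were stimulated with 9-cis-RA at 500 or 100 nM final alongside test compound for 18 h at 37 C.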
# [3] = target: Retinoic acid receptor RXR-alpha (Homo sapiens) (UniProt P19793); test: as above; conditions: HEK293T RXRa-UAS-bla, beta-lactamase ratio, antagonist mode
# Method in brief: as §1
# [4] = target: Thyroid hormone receptor beta (Homo sapiens) (UniProt P10828); test: qHTS assay for small molecule antagonists of thyroid hormone receptor beta signaling (AID 588547; active = well fitted inhibition curve with a large enough effect in the signal ratio, with a control signal flat, not every such curve was filed as active; the % refers to the signal ratio;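 note: cells stimulated with 0.4 nM T3 agonist during compound exposure; % is set by controls: 0 for no effect and ±100 for the full control effect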); conditions: TR-UAS-bla HEK293, beta-lactamase ratio, antagonist mode, 18 h
# Method in brief: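 TR-UAS-bla GripTite HEK293 cells in 2% charcoal/dextran FBS medium; compounds 0.59 nM to 92 uM with T3 at 0.4nM final, 18 h at 37 C. Beta-lactamase read by CCF4 fluorescence (460/530 nm); Hill fits gave IC50 and efficacy.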
# [5] = target: Peroxisome proliferator-activated receptor alpha (Homo sapiens) (UniProt Q07869); test: qHTS assay for small molecule agonists of the peroxisome proliferator-activated receptor alpha (PPARalpha) signaling pathway (AID 651778); conditions: PathHunter PPARalpha complementation, chemiluminescence, 6 h; stronger effect = higher value; note: % of control where 0% means no effect
# Method in brief: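 Enzyme-fragment complementation assay in which ligand-bound PPARalpha translocates and forms an active enzyme that generates chemiluminescence. Cells were plated overnight, exposed to compound for 6 hr at 37 C, and then given detection reagent for 60 min at room temperature.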
# [6] = qHTS assay for small molecule antagonists of the retinoid-related orphan receptor gamma (ROR-gamma) signaling pathway - cell viability counter screen (AID 720652; active = well fitted curve in the direction sought with a large enough effect in the repeat runs; an effect the other way counts as inactive or inconclusive;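 note: CHO reporter cells with doxycycline-induced ROR-gamma expression; compound exposure lasted 16 hr before ATP read; % is set by controls: 0 for no effect and ±100 for the full control effect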); conditions: RORgamma reporter cell line viability counter screen; at 92.2 µM (top of the series)
# Method in brief: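 CHO cells carrying TET-inducible ROR and RORE-luciferase reporter, plated 5 hr, then dosed with compound plus doxycycline. After 16 hr at 37 C, viability read as intracellular ATP by CellTiter-Glo luminescence.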
# [7] = qHTS assay for cell viability of the p53RE-bla HCT-116 cell line (AID 743292); conditions: p53RE-bla HCT-116 viability, ATP luminescence, 16 h; at 95 µM (top of the series); note: % is set by controls: 0 for no effect and ±100 for the full control effect; nearly all actives have a fitted effect of over 55% in size
# Method in brief: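 ATP-based luminescent viability (CellTiter-Glo, 30 min RT) after 16 h compound treatment at 37 C of p53RE-bla HCT-116 cells, seeded at 4,000 cells/well and rested 5 h before dosing.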
# [8] = qHTS assay for measurement of the activity of small molecule inhibitors on Zika virus induced Caspase-3 activity in human astrocytoma cells (AID 1224859); conditions: SNB-19 ZIKV-induced caspase-3/7, luminescence, 6 h; at 92.8 µM (top of the series);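 note: plate controls were ZIKV-infected untreated cells for no effect and uninfected cells for full effect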
# Method in brief: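 Human SNB-19 astrocytoma cells in RPMI 1640 with 10% FBS receive compound one hour ahead of Zika virus at 2 FFU/cell. After 6 h infection, caspase-3/7 activity is detected by Caspase-Glo luminescence.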
# [9] = NS1 protein of Zika virus - qHTS assay to identify small molecule inhibitors in human HEK 293 cells (AID 1347053); conditions: HEK293 ZIKV MR766 infection, NS1 TR-FRET, 24 h; at 92.8 µM (top of the series);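 note: plate controls were infected untreated cells for no effect and uninfected cells for full effect; nearly all actives have a fitted effect of over 55% in size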
# Method in brief: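 Inhibition of NS1 expression was scored in HEK 293 cells given compound 1 h ahead of MR766 virus (MOI = 0.5). Following 24 h at 37 C, two anti-NS1 antibodies generated a TR-FRET signal, scaled between uninfected and infected controls.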
# [10] = qHTS of pediatric cancer cell lines to identify multiple opportunities for drug repurposing: Primary screen for TC32 cells (AID 1347089); conditions: TC32 Ewing sarcoma viability, CellTiter-Glo luminescence, 48 h; at 92.2 µM (top of the series); note: % is set by controls: 0 for no effect and ±100 for the full control effect; nearly all actives have a fitted effect of over 60% in size
# Method in brief: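 qHTS, TC32, 48 h drug treatment, CellTiter-Glo luminescence as a proxy for metabolically active cells; primary top concentration 46 µM (MIPE 11-pt, NPC 8-pt); confirmatory 11-pt.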
# [11] = qHTS of pediatric cancer cell lines to identify multiple opportunities for drug repurposing: Primary screen for DAOY cells (AID 1347090); conditions: DAOY medulloblastoma viability, CellTiter-Glo luminescence, 48 h; at 92.7 µM (top of the series);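 note: plate controls were DMSO for no effect and bortezomib for full effect; nearly all actives have a fitted effect of over 55% in size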
# Method in brief: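 Viability measured as metabolically active cells via CellTiter-Glo luminescence following 48 hours of compound exposure, 11-point dilutions in confirmatory testing. 500-1,000 cells/well plated 5 hours before dosing; controls were DMSO and 2.3 µM bortezomib.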
# [12] = qHTS of pediatric cancer cell lines to identify multiple opportunities for drug repurposing: Primary screen for SK-N-MC cells (AID 1347093); conditions: SK-N-MC viability, CellTiter-Glo luminescence, 48 h; at 92.7 µM (top of the series);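 note: plate controls were DMSO neutral control for no effect and bortezomib for full effect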
# Method in brief: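 Metabolically active cells were quantified by ATP-dependent luminescence (CellTiter-Glo, 15 min at room temperature) following 48 h treatment. Cells had been plated at 500-1,000 per well and settled for 5 h beforehand.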
# [13] = qHTS of pediatric cancer cell lines to identify multiple opportunities for drug repurposing: Primary screen for SK-N-SH cells (AID 1347098); conditions: SK-N-SH viability, CellTiter-Glo luminescence, 48 h; at 115 µM (top of the series);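 note: DMSO served as neutral control and bortezomib at 2.3 µM as positive control; % is set by controls: 0 for no effect and ±100 for the full control effect; nearly all actives have a fitted effect of over 65% in size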
# Method in brief: (§2)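 Cells (500-1,000/well) rested 5 h, then received compounds for 48 h; metabolically active cells were measured by CellTiter-Glo luminescence. Final concentrations spanned up to 46 µM (MIPE, 11-point) or 0.59 nM-46 µM (NPC, 8-point) in primary screens, 11-point in follow-ups.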
# [14] = qHTS of pediatric cancer cell lines to identify multiple opportunities for drug repurposing: Primary screen for OHS-50 cells (AID 1347103); conditions: OHS-50 osteosarcoma viability, CellTiter-Glo luminescence, 48 h; at 116 µM (top of the series);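 note: plate controls were DMSO neutral control for no effect and bortezomib positive control for full effect; nearly all actives have a fitted effect of over 40% in size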
# Method in brief: as §2
# [15] = qHTS of pediatric cancer cell lines to identify multiple opportunities for drug repurposing: Primary screen for MG 63 (6-TG R) cells (AID 1347105); conditions: MG 63 (6-TG R) viability, CellTiter-Glo, 48 h; at 92.7 µM (top of the series); note: % is set by controls: 0 for no effect and ±100 for the full control effect; nearly all actives have a fitted effect of over 50% in size
# Method in brief: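 Cells seeded at 500-1,000 cells/well in growth media, rested 5 hours at 37 degrees C, 5% CO2, then dosed; MIPE compounds at 11-point (from 0.78 nM) and NPC at 8-point (from 0.59 nM) final concentrations. Viability by CellTiter-Glo luminescence after 48 hours.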
# [16] = qHTS of pediatric cancer cell lines to identify multiple opportunities for drug repurposing: Primary screen for Rh30 cells (AID 1347107); conditions: Rh30 rhabdomyosarcoma viability, CellTiter-Glo luminescence, 48 h; at 92.7 µM (top of the series); note: % is set by controls: 0 for no effect and ±100 for the full control effect; nearly all actives have a fitted effect of over 75% in size
# Method in brief: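 Viability after 48 h compound treatment at 37C, 500-1,000 cells/well, read as ATP luminescence with CellTiter-Glo. Primary screens used 11-point (MIPE, 0.78 nM-46 µM) or 8-point (NPC, 0.59 nM-46 µM) final concentrations; follow-up screens used 11-point dilutions.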
# [17] = qHTS to identify inhibitors of the type 1 interferon - major histocompatibility complex class I in skeletal muscle: primary screen against the NCATS Pharmaceutical Collection (AID 1347407); conditions: human skeletal muscle cells, IFN-b-induced MHC-I HiBiT luminescence, 24 h; at 92.2 µM (top of the series);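 note: luminescence of HiBiT knocked into endogenous HLA-B as interferon-induced MHC class I level; % is set by controls: 0 for no effect and ±100 for the full control effect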
# Method in brief: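 Luminescence from HiBiT-tagged endogenous HLA-B*08:01 served as the read-out of IFN-beta-induced MHC class I in CRISPR-engineered C25cl48 myoblasts. Cells received 4 ng/ml IFN-beta plus compound (high final 46 uM, […]) for 24 h.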
structure (smiles),measurement,setting,value
Nc1ccc(N)c([N+](=O)[O-])c1,activation,[1],inactive: 2.02% and inactive: -11.3%
same,max response,[2],-14.2%
same,max response,[3],inactive: 14.7%
same,activity change % (negative = inhibition),[4],inactive: 5.88% and inactive: 10.3%
same,max response,[5],inactive: -3.8% and inactive: -4.45%
same,"activity change, negative = cytotoxicity",[6],inactive: 3.38%
same,"activity change, negative = cytotoxicity",[7],inactive: 8.47% and inactive: -15.4%
same,"activity change, negative = inhibition",[8],inactive: -7.12%
same,"activity change, negative = inhibition",[9],inactive: 46.9%
same,"activity change, negative = cytotoxic",[10],inactive: -9.55%
same,"activity change, negative = cytotoxic",[11],inactive: -22.8%
same,"activity change, negative = cytotoxic",[12],inactive: -36.5%
same,"activity change, negative = cytotoxic",[13],inactive: -20.6%
same,"activity change, negative = cytotoxic",[14],inactive: 38.9%
same,"activity change, negative = cytotoxic",[15],inactive: -6.33%
same,"activity change, negative = cytotoxic",[16],inactive: 9.11%
same,"activity change, negative = inhibition",[17],inactive: -21%
